In publication PMC7819943, “Rice protein-binding microarrays: a tool to detect cis-acting elements near promoter regions in rice” one finds binding signal data, which are given here for 54 sequences.

Amino acid sequences for entries named in this document (tags omitted).
UniProt Q0JBA9, entry or part of it: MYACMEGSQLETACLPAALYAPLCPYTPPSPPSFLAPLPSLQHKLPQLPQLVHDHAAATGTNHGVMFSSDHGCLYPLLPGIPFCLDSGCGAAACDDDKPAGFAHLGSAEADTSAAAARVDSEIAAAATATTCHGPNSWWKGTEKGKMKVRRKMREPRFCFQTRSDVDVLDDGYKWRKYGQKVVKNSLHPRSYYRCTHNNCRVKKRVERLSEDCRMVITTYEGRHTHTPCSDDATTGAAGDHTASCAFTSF

Some of the results follow.

The assay has as its target OsWRKY34 (Oryza sativa, UniProt Q0JBA9 1-250). Briefly: protein-binding microarray (RPBM); PBS, 2% BSA, 51.3 ng/ul salmon testes DNA, 50 uM zinc acetate, 200 nM TF, 25 C, 1 h; high values mean tight binding. The conditions noted are these: protein: recombinant; tags: N-terminal polyhistidine and DsRed monomer fusion (pET32a); label: CyDye5-dUTP incorporated in the synthesized complementary strand; 3' TTTTT single-stranded linker to array surface; dsDNA, one strand shown. The gist of the method: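 Ni–NTA purification followed expression in E. coli BL21-CodonPlus of transcription factors fused N-terminally to a polyhistidine tag and DsRed. At 200 nM in PBS with 2% BSA, salmon testes DNA and 50 µM zinc acetate, the protein was incubated for 1 h at 25 °C with a custom Agilent array that had been primer-extended with Cy5-dUTP and blocked with 2% BSA. After washing, the array was read on an Axon 4000B scanner. The binding signal is per-feature fluorescence intensity in arbitrary units.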
In the case of “GGGATTTCTCGCAAAACGACGCCCACTAATCCAGACCCCTCGGAGTCACCTAGTGCAG”, the binding signal is 8250 fluorescence intensity (a.u.).

For the sequence “GTGCTCCATGCTCCAAGCCGCATCCGCGTCTCTCGTCACGCGGAGTCACCTAGTGCAG”, the binding signal was 9070 fluorescence intensity (a.u.).

Turning to “CAGACTGAAATGTATTTGCTGTACCCGTCCTTGGTTACTTCGGAGTCACCTAGTGCAG”, the binding signal is 8660 fluorescence intensity (a.u.).

Consider “TACTTATTTCGTTATATTGAGGCCACATCCAAATCCAGTTCGGAGTCACCTAGTGCAG”, for which the binding signal was 8670 fluorescence intensity (a.u.).

Regarding “CTCGTTTCTTTCGCGTGAACGCCGAGTCTTCTCTGAATTCCGGAGTCACCTAGTGCAG”, the binding signal was 13000 fluorescence intensity (a.u.).

As for “AGGAGAGATGGCCACCACTACACTCTCCATTGTCCCACTCCGGAGTCACCTAGTGCAG”, the binding signal was 8390 fluorescence intensity (a.u.).

With “TGGTTTGCGGTGGTGCGCGCGCGGCTTCTTCTCGGGGTGGCGGAGTCACCTAGTGCAG”, the binding signal was 9070 fluorescence intensity (a.u.).

Turning to “TGTCACATCACATCGATCATTGATTTCACTTTGATTCCTCCGGAGTCACCTAGTGCAG”, the binding signal is 9370 fluorescence intensity (a.u.).

For “GGTCCGCGCGCTCGTGTATAAATAGGCCCGGCCGGTCGCGCGGAGTCACCTAGTGCAG”, the binding signal is 8840 fluorescence intensity (a.u.).

Regarding “CACTTTTTTGTTTGCCGCTCGTTGATTTCATTAGCGAGTTCGGAGTCACCTAGTGCAG”, the binding signal is 9190 fluorescence intensity (a.u.).

As for “CCAACCCCACCACCACACACATCCATCCTCACGACGCCCTCGGAGTCACCTAGTGCAG”, the binding signal is 8500 fluorescence intensity (a.u.).

Consider “CGTCAATCCGCCTTGCATTTCGCCACCCTCTATCTCGCCGCGGAGTCACCTAGTGCAG”, for which the binding signal is 9120 fluorescence intensity (a.u.).

Take “TCTTTAATATCACGTTTGACCATTTGTTCTATTCAAAAATCGGAGTCACCTAGTGCAG”: the binding signal was 11200 fluorescence intensity (a.u.).

In the case of “GGAAGGAGTGTGTTTCGTGTGCTGTGCTGGGCTCGCGCGGCGGAGTCACCTAGTGCAG”, the binding signal is 8990 fluorescence intensity (a.u.).

Turning to “TTCTCCTGTGCTTTGACCACGACCTCTCATTTGGCCACTTCGGAGTCACCTAGTGCAG”, the binding signal is 11200 fluorescence intensity (a.u.).

For the sequence “TCATGGATTATCTCTTTAATGTATAACGCCGTTGACTTTTCGGAGTCACCTAGTGCAG”, the binding signal is 14300 fluorescence intensity (a.u.).

On to “TCACTTGGGGTGGGTGATAAGATACAATCTGTTAGACGTGCGGAGTCACCTAGTGCAG”, for which the binding signal is 9190 fluorescence intensity (a.u.).

For the sequence “CCATCACTCCGTTCATTAGACCTGTCCCATTGTCCAAGCTCGGAGTCACCTAGTGCAG”, the binding signal was 8770 fluorescence intensity (a.u.).

Turning to “CTCTTTTTTGGATCAGCGCCATGTTCTCTCCTCTCTCTCTCGGAGTCACCTAGTGCAG”, the binding signal is 8960 fluorescence intensity (a.u.).

Consider “TCCGCCTATAAATTCTTGCCACTTCTGTCGATCGCCGCGGCGGAGTCACCTAGTGCAG”, for which the binding signal is 10200 fluorescence intensity (a.u.).

As for “TCTTAGGTGGTCAATGCGTATGTTTCGGTGGTGTTTGGATCGGAGTCACCTAGTGCAG”, the binding signal was 8370 fluorescence intensity (a.u.).

With “GTGTGGGCGTGCATGAGATCGCTCCATGTGTTGAACTGTTCGGAGTCACCTAGTGCAG”, the binding signal is 8370 fluorescence intensity (a.u.).

“GCAAACCCTAGCGCGTGCTTTTTCCCCTGATTCACCGATTCGGAGTCACCTAGTGCAG”: the binding signal was 8110 fluorescence intensity (a.u.).

Regarding “AGCCGAGCGTTGACTCACATAAAGGAGAACCACAAATTTCCGGAGTCACCTAGTGCAG”, the binding signal was 8570 fluorescence intensity (a.u.).

With “TTTCTACTTCTTACCGATTTGTACTCTCTGTGTAAATTTACGGAGTCACCTAGTGCAG”, the binding signal is 10400 fluorescence intensity (a.u.).

As for “TGCCCTGCCCTGCCCTAGCGCCGCCGCCGCTTTTCCTTCCCGGAGTCACCTAGTGCAG”, the binding signal was 9250 fluorescence intensity (a.u.).

“ACTCCATTTTTTTTCCTCGTTCGGTCTCTTCTAAAATAAACGGAGTCACCTAGTGCAG”: the binding signal is 9870 fluorescence intensity (a.u.).

“ATGGTTCCTTTCATTCCTTTGTTTGGTCTTACGCTCGGTGCGGAGTCACCTAGTGCAG”: the binding signal was 9210 fluorescence intensity (a.u.).

For “TAGTGTGACCACCTTGACTAACCTGAACCTCTTAATTACTCGGAGTCACCTAGTGCAG”, the binding signal was 8750 fluorescence intensity (a.u.).

Take “AAACATGTTTAAAAAAGTCAACGGCGTCAAACATTTAGGGCGGAGTCACCTAGTGCAG”: the binding signal is 13800 fluorescence intensity (a.u.).

In the case of “TCTGTGCCTGCTCTTCTGCCCAATTGGGATCGCGACTCACCGGAGTCACCTAGTGCAG”, the binding signal is 8470 fluorescence intensity (a.u.).

“AATCCCGCCACACCTAATCCACTCTAGTAGCTCTCACATTCGGAGTCACCTAGTGCAG”: the binding signal was 9860 fluorescence intensity (a.u.).

For “TTGTTACTTTACATTCATTTCTCGCAGTTCCTCAGGATATCGGAGTCACCTAGTGCAG”, the binding signal is 10200 fluorescence intensity (a.u.).

For “GCGTTGAGGGCAGGCGGCGGCGCTTGGTGGCGGTGGGGCACGGAGTCACCTAGTGCAG”, the binding signal was 8370 fluorescence intensity (a.u.).

Regarding “CCTCTCTTTCTCTCTCTCTCTCTCTCTCTTTCTGTCCATTCGGAGTCACCTAGTGCAG”, the binding signal was 8100 fluorescence intensity (a.u.).

As to “ATTCAACCACTGTTTTCTCTGCATGAACCTCTGTCACCCTCGGAGTCACCTAGTGCAG”, the binding signal was 9160 fluorescence intensity (a.u.).

In the case of “CCGCCGCTGCTCCTCCCCATCGCCGAATCCGCCACCGCAGCGGAGTCACCTAGTGCAG”, the binding signal is 8680 fluorescence intensity (a.u.).

As for “TATGTACTATGTGTGTTTTAGAGCTTCACCTACACTGCCACGGAGTCACCTAGTGCAG”, the binding signal is 8530 fluorescence intensity (a.u.).

Consider “CCGGTGCTTGGCCATGGACCTCCTTTCACGTCTAGCTCTCCGGAGTCACCTAGTGCAG”, for which the binding signal is 8440 fluorescence intensity (a.u.).

Regarding “CATTGTCATCATCGATATTTTTGGTTTTATTTTCACGGGTCGGAGTCACCTAGTGCAG”, the binding signal is 10100 fluorescence intensity (a.u.).

For “ACACCATGAACACGTAGGTACATTTGCGTTCTGTATATATCGGAGTCACCTAGTGCAG”, the binding signal was 8340 fluorescence intensity (a.u.).

For “ATACCAATCATCATGGTCCGGTTGCAAGTAAAATACTAGTCGGAGTCACCTAGTGCAG”, the binding signal is 8110 fluorescence intensity (a.u.).

Take “GGCTTCAGTATGAATTCTTACACAACCGTTGGTGTGCTACCGGAGTCACCTAGTGCAG”: the binding signal was 9250 fluorescence intensity (a.u.).

Turning to “ACTCACCCACGCACACATGCTGCGCCCTCACCGCCACGGCCGGAGTCACCTAGTGCAG”, the binding signal is 8580 fluorescence intensity (a.u.).

For the sequence “TGGCGCCAGCCCTTAAGATTTGGGGAGGAGGGGTGGAACGCGGAGTCACCTAGTGCAG”, the binding signal is 10400 fluorescence intensity (a.u.).

As for “ATGTTTCGTATATTTTGATTATCGGGTTGGTCAGTTGTTTCGGAGTCACCTAGTGCAG”, the binding signal is 8900 fluorescence intensity (a.u.).

Regarding “TTCTTCTTTTCTTTTTTTTTTGTTTTCTTCTCATTCTTCTCGGAGTCACCTAGTGCAG”, the binding signal is 10100 fluorescence intensity (a.u.).

“ACACCGTCCCCGGTTGGCCGCCGCTGCTGTCGCCCGTCCGCGGAGTCACCTAGTGCAG”: the binding signal was 8130 fluorescence intensity (a.u.).

For the sequence “CGCGGATCGGCGCGCCACGTGTACGGCCATGATTCATCTCCGGAGTCACCTAGTGCAG”, the binding signal is 8530 fluorescence intensity (a.u.).

For the sequence “GCCGCCCGGCGACCACCACCACCACCATTAACGCTTAAACCGGAGTCACCTAGTGCAG”, the binding signal was 8550 fluorescence intensity (a.u.).

As to “GAAAGTTGGGTTGAGAAAAAGGCATCGGGAATTTGGGATACGGAGTCACCTAGTGCAG”, the binding signal was 8500 fluorescence intensity (a.u.).

Regarding “CCCCGCTCGCGGCCCGGTCGCGCCAAACATCGTCCGACTCCGGAGTCACCTAGTGCAG”, the binding signal was 9010 fluorescence intensity (a.u.).

For “GTTTCTTTCTCTCTCTCTCTCTCGTTCTCTCCGCTCTCTCCGGAGTCACCTAGTGCAG”, the binding signal was 8830 fluorescence intensity (a.u.).

In the case of “ACTTTGTTTACGTATCTTCTCAATCTTGTCATTTTTTTCTCGGAGTCACCTAGTGCAG”, the binding signal was 9810 fluorescence intensity (a.u.).
